Several values for one entry are separate records, joined by “and”; a condition that tells them apart may be missing. Equal values may be shown once.

From patent US20140243210A1, “PURIFICATION OF IMMUNOGLOBULINS USING AFFINITY CHROMATOGRAPHY AND PEPTIDE LIGANDS” (priority 2005, published 2014) come the findings set out here.

Data set [1] relates to HIgG. In words: Chromatographic separation of HIgG from MEM, column format (A280, ELISA, SDS-PAGE densitometry). Set-up: species or system human. For orientation: An ELISA detects its analyte on a solid surface through an enzyme-linked reagent.
Data set [2] concerns HIgG. In words: Adsorption isotherm measurements, Langmuir model. The data set is classed as binding, human. The conditions noted are these: at maximum capacity.
Setting [3] is: 2-1 (linear salt gradient wash, pH 4 PB elution), PBS, not MeOH swelled (runs HF1, HY2, HV3, YY1).
The mark [4] stands for this setting: 2-1, PBS, MeOH swelled (runs HY1, HV2).
Setting [5] is: 2-1, PBS, not MeOH swelled (runs HF1, HY2, HV3, YY1).
The mark [6] stands for this setting: loaded at pH 7.4, low salt, FIG. 11.
Where [7] appears, read: run HP28, 0.1 meq/g, 1-26 (0.5 M NaCl wash, pH 4 PB elution), PBS, not MeOH swelled.
Setting [8] is: run HW2, 0.55 meq/g, 1-26, PBS, not MeOH swelled.

For the substance “HVHYYW [hexapeptide ligand on Toyopearl resin, 0.1 meq/g]”, the “ELISA assay Rec” value in the data set with HIgG [1] (setting [3]) turned out to be 49.11%. In addition, in the data set with HIgG [1] (setting [4]), the “ELISA assay Purity” value came to 89.59%, the “ELISA assay Rec” value was found to be 29.95%, the “ImageJ Purity” value was 84% and the “ImageJ Rec” value is given as 53%. Also, in the data set on HIgG [1] (setting [5]), the “ELISA assay Purity” value is listed as 78.10%, the “ImageJ Purity” value was 65% and the “ImageJ Rec” value stood at 39%.

Turning to “HWRGWV [Ac-HWRGWV, acetylated HWRGWV on resin, 0.080 mmol/g]”, in the data set with HIgG [2] (substitution 0.080 mmol/g), the peptide/protein amounted to 92 mol/mol.

For the substance “HWRGWV [hexapeptide ligand on Toyopearl AF-amino-650 M resin; 0.1 meq/g unless another substitution is stated]”, the peptide/protein with HIgG [2] (substitution 0.022 mmol/g) came to 21 mol/mol; in the data set on HIgG [2] (substitution 0.040 mmol/g) it was 41 mol/mol; in the data set on HIgG [2] (substitution 0.080 mmol/g), 91 mol/mol; in the data set with HIgG [2] (substitution 0.10 mmol/g) it was 112 mol/mol; with HIgG [2] (substitution 0.22 mmol/g), 241 mol/mol; with HIgG [2] (substitution 0.55 mmol/g), 600 mol/mol. The “Percentage of HIgG (by 25 kD HIgG band, densitometry)” value in the data set on HIgG [1] (lane 10: peak 2, pure HIgG injection 5 mg/ml in PBS) is reported as 97.2%. The “HIgG that came off the column with pH 5 PB” value with HIgG [1] (setting [6]) is 7%. In addition, the “HIgG that came off the column with pH 6 PB” value with HIgG [1] (setting [6]) turned out to be 54%. In addition, in the data set on HIgG [1] (product peak 2, pH 4 PB elution, MEM + HIgG), the “Yield of HIgG (by 25 kD HIgG bands, densitometry)” value was ~68% and 68%. Moreover, the “ImageJ Purity” value in the data set on HIgG [1] (setting [7]) worked out at 68%; in the data set with HIgG [1] (setting [8]), 73%. The “ImageJ Rec” value in the data set on HIgG [1] (setting [7]) was found to be 74%; with HIgG [1] (setting [8]) it was 73%. In the data set with HIgG [1] (run HW2, 0.55 meq/g, 1-26 (0.5 M NaCl wash, pH 4 PB elution), PBS, not MeOH swelled), the “ELISA assay Rec” value is 77% and 80.28%. In the data set on HIgG [1] (setting [8]), the “ELISA assay Purity” value was 80% and 76.85%.

Turning to “HYFKFD [hexapeptide ligand on Toyopearl resin, 0.1 meq/g]”, the “ELISA assay Rec” value in the data set on HIgG [1] (setting [3]) was 47.7% and 47.71%. Further, in the data set on HIgG [1] (setting [4]), the “ELISA assay Purity” value is recorded as 75.10%, the “ELISA assay Rec” value was 37.47%, the “ImageJ Purity” value is reported as 82% and the “ImageJ Rec” value was 39%. In the data set on HIgG [1] (setting [5]), the “ELISA assay Purity” value is 90% and 90.15%; the “ImageJ Purity” value is given as 92%; the “ImageJ Rec” value came out at 60%.

Regarding “truncation of the subunit GFRKYLHFRRHLL of a multiple antigenic peptide (MAP) (Immunoglobulin binding peptide sequence)”, in the data set with HIgG [1] (setting [5]), the “ImageJ Purity” value came to 78% and the “ImageJ Rec” value turned out to be 76%.
